In patent publication US20240277861A1, “ANTI-HEPATITIS B VIRUS AGENT TARGETING HOST FACTOR LIPG” (PUROTECH BIO, INC., priority 2021, published 2024) one finds binding data, which are given here for one molecule.

These are yes or no findings as the source states them, for the method shown. Binding seen in cells or lysates may run through a third protein. Some binding calls cover weakened binding; strength is not graded here. Where a sequence is shown, tags or fusion partners need not be part of it.

The target in this experiment is T1, LIPG-BioFLAGHis (Klebsiella pneumoniae) (UniProt P13187).
T1 sequence (chain, biotinylated on the biotinylation sequence (Bio-tag)): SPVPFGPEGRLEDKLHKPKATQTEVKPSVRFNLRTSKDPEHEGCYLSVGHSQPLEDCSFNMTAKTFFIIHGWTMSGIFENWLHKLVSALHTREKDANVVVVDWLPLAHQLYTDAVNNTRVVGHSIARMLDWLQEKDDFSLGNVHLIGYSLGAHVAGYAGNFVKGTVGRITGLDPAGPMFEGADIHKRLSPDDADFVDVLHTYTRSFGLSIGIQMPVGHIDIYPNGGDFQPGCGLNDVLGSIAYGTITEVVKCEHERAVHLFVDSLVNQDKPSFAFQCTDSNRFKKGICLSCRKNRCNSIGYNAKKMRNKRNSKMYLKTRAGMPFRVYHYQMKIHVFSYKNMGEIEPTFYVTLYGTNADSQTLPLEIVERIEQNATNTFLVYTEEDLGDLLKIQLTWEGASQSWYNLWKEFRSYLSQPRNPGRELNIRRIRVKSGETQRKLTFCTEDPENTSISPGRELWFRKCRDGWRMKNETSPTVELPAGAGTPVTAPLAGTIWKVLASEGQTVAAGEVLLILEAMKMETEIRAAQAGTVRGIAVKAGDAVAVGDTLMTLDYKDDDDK
Description: pull-down: biotinylated full-length LIPG on streptavidin beads, culture supernatant containing expressed N4BP1, T7-tag HRP western blot, against no bait. (In general: Immunoblotting shows a protein as a band on a membrane.)

B1: N4BP1 (NEDD4 Binding Protein 1) (enzyme)
chain: MAARAVLDEFTAPAEKAELLEQSRGRIEGLFGVSLAVLGALGAEEPLPARIWLQLCGAQEAVHSAKEYIKGICEPELEERECYPKDMHCIFVGAESLFLKSLIQDTCADLCILDIGLLGIRGSAEAVVMARSHIQQFVKLFENKENLPSSQKESEVKREFKQFVEAHADNYTMDLLILPTSLKKELLTLTQGEENLFETGDDEVIEMRDSQQTEFTQNAATGLNISRDETVLQEEARNKAGTPVSELTKQMDTVLSSSPDVLFDPINGLTPDEEALSNERICQKRRFSDSEERHTKKQFSLENVQEGEILHDAKTLAGNVIADLSDSSADSENLSPDIKETTEEMEYNILVNFFKTMGYSQEIVEKVIKVYGPSTEPLLLLEEIEKENKRFQEDREFSAGTVYPETNKTKNKGVYSSTNELTTDSTPKKTQAHTQQNMVEKFSQLPFKVEAKPCTSNCRINTFRTVPIEQKHEVWGSNQNYICNTDPETDGLSPSVASPSPKEVNFVSRGASSHQPRVPLFPENGLHQQPEPLLPNNMKSACEKRLGCCSSPHSKPNCSTLSPPMPLPQLLPSVTDARSAGPSDHIDSSVTGVQRFRDTLKIPYKLELKNEPGRTDLKHIVIDGSNVAITHGLKKFFSCRGIAIAVEYFWKLGNRNITVFVPQWRTRRDPNVTEQHFLTQLQELGILSLTPARMVFGERIASHDDRFLLHLADKTGGIIVTNDNFREFVNESVSWREIITKRLLQYTFVGDIFMVPDDPLGRSGPRLEEFLQKEVCLRDMQPLLSALPNVGMFDPSFRVPGTQAASTSHQPPTRIQGAPSSHWLPQQPHFPLLPALPSLQQNLPMPAQRSSAETNELREALLKIFPDSEQRLKIDQILVAHPYMKDLNALSAMVLD
With B1, the binding result is given as “binds”.
